Some of the results follow.
Compound: CN1CCN(c2nc(C3=C(c4c[nH]c5ccccc45)C(=O)NC3=O)c3ccccc3n2)CC1 [sotrastaurin]
Assay: log2 fold change, soluble protein after heating vs DMSO (PISA); higher = thermal stabilisation; K562 cells, 10 uM, 30 min; active = over 0.2 and 3.5 SD of the protein, either way, in both replicates (recomputed)
Summary of the method: (§1)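 Soluble protein was quantified by TMTpro 16plex LC-MS/MS after channel sums were equalised. It was obtained as the supernatant after 21,000xg for 90 min from pooled aliquots of K562 cells (2×10^6 cells/mL, 10 μM compound, 30 min) heated for 3 min across 48°C-58°C and extracted in PBS with 0.5% NP-40 at 4°C. Thermal stability values are relative to control samples and come from duplicates. They are given as log2 fold changes.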

By UniProt entry, the sequences of proteins in these tests, tags left out. Where a name states a change or a piece, a line headed by the entry shows the natural chain unless it says otherwise.
UniProt Q6WKZ4: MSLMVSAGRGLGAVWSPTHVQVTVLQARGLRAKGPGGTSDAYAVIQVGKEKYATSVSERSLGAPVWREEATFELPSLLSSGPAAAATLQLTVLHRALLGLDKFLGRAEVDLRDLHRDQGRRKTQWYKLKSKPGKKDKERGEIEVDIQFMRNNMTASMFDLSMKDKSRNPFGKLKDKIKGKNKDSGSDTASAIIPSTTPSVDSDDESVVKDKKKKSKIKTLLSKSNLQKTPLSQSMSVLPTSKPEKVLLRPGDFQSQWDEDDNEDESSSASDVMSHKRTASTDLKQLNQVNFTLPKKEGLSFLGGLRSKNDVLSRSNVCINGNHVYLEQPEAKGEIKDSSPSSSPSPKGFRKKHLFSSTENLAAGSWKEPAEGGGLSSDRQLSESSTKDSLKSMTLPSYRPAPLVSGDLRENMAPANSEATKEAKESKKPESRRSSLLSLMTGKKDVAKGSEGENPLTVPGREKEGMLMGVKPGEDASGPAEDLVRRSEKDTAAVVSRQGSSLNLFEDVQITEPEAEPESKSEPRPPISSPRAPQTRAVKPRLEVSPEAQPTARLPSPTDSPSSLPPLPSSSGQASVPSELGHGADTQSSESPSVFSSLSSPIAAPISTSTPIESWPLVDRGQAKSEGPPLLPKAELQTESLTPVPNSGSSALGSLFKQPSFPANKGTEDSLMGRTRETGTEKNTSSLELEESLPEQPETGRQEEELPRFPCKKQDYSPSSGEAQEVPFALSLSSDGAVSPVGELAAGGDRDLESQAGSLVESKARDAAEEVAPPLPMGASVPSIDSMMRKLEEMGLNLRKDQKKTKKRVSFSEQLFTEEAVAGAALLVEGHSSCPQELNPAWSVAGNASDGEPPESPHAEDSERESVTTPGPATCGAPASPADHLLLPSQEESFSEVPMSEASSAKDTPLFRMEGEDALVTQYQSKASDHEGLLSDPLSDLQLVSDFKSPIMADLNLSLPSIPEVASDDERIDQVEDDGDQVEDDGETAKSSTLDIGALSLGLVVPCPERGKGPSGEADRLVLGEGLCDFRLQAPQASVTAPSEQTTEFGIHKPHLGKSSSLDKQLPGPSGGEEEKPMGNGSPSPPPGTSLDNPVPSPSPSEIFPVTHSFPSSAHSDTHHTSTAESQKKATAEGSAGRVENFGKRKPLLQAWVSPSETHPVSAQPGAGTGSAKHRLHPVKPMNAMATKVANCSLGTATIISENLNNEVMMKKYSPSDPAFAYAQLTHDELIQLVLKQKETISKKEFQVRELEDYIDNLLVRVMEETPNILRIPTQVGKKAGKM
UniProt Q96I25: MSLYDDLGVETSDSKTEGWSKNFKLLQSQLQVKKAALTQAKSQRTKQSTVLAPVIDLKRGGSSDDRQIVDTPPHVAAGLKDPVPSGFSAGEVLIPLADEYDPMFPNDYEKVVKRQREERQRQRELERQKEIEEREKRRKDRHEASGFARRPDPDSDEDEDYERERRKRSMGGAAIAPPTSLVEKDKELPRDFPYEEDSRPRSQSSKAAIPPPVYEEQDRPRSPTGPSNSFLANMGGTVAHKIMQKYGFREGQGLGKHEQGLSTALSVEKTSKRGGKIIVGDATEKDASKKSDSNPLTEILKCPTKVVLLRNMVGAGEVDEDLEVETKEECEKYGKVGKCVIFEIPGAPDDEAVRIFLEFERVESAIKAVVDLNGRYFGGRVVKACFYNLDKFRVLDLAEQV
UniProt Q8N0T1: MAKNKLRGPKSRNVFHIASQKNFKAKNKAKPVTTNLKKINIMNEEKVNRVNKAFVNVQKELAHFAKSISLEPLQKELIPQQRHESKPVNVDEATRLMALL
UniProt Q06609, whole entry, looked up: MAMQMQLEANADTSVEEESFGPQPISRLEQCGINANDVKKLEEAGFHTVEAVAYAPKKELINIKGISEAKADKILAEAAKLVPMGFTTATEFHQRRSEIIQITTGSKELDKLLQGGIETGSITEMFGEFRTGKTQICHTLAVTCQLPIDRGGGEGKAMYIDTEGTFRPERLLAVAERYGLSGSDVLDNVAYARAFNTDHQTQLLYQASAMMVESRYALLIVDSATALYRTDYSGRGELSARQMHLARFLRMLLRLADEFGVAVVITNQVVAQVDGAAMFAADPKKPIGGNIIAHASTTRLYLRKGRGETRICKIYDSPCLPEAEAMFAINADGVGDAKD
UniProt P11233: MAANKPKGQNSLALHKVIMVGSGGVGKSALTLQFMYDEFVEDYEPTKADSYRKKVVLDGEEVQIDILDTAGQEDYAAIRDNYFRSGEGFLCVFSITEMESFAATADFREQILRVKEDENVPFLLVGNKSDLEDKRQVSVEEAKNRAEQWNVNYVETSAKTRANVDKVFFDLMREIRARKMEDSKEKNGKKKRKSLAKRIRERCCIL
UniProt Q16576, whole entry, looked up: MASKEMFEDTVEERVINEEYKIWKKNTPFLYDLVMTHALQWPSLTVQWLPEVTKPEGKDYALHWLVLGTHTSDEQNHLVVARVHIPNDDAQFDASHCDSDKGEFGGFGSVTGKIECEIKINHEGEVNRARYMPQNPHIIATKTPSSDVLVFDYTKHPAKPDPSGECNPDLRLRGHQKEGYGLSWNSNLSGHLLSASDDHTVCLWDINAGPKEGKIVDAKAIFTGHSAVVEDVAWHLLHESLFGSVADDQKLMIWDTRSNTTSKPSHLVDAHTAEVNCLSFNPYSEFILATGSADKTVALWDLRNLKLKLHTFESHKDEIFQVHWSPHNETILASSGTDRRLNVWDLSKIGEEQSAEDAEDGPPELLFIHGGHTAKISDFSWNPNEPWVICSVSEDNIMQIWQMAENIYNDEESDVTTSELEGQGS
UniProt Q9NW64: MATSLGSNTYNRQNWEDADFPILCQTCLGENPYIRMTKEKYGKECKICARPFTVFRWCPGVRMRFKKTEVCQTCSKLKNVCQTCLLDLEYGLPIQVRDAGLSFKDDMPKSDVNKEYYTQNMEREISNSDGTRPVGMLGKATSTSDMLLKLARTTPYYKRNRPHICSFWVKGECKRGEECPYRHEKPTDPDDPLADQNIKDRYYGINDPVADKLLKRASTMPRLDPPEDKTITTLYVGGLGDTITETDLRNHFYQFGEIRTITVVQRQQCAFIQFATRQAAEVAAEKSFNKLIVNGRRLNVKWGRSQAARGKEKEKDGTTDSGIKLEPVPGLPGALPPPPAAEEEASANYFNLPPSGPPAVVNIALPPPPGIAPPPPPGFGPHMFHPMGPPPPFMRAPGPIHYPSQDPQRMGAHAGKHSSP
UniProt Q96S21: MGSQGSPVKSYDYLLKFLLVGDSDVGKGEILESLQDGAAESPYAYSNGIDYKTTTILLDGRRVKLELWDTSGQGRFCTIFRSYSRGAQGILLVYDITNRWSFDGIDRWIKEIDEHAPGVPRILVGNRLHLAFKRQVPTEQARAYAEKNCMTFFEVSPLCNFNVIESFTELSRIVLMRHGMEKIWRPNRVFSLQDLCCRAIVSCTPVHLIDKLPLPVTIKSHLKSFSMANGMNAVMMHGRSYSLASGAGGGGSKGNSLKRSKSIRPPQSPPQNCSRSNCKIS
UniProt Q92696: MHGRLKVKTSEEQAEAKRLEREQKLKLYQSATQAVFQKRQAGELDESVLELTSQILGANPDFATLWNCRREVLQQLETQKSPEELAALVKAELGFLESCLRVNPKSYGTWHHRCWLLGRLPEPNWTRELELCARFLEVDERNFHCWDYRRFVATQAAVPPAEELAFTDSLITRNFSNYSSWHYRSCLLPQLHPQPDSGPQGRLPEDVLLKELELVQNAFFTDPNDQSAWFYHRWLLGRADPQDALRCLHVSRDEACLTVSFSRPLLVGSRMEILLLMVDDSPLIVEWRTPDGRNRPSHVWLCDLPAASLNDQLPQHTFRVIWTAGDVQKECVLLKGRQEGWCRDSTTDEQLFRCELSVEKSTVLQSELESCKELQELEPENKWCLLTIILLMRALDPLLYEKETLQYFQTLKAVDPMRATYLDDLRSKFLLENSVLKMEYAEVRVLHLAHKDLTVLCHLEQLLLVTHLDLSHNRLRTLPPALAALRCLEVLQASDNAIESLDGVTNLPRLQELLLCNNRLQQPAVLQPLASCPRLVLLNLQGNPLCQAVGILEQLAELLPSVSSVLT
UniProt P54136: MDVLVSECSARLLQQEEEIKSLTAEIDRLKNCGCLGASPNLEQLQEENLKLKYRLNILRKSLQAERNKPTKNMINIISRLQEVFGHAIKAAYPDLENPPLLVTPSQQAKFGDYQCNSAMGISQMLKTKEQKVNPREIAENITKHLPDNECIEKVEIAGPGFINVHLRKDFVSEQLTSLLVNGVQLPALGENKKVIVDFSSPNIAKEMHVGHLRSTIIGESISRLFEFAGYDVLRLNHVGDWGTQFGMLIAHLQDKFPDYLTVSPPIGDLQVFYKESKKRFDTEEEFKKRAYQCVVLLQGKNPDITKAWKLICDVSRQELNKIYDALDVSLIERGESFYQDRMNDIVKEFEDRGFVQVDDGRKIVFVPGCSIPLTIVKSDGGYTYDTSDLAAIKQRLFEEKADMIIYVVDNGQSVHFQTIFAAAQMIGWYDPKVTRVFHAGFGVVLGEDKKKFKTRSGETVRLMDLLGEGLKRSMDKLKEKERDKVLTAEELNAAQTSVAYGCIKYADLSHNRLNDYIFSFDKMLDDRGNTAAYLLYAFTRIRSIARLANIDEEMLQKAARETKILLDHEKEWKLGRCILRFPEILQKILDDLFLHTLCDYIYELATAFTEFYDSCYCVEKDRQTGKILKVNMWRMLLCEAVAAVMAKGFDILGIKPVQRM
UniProt Q8WZA2: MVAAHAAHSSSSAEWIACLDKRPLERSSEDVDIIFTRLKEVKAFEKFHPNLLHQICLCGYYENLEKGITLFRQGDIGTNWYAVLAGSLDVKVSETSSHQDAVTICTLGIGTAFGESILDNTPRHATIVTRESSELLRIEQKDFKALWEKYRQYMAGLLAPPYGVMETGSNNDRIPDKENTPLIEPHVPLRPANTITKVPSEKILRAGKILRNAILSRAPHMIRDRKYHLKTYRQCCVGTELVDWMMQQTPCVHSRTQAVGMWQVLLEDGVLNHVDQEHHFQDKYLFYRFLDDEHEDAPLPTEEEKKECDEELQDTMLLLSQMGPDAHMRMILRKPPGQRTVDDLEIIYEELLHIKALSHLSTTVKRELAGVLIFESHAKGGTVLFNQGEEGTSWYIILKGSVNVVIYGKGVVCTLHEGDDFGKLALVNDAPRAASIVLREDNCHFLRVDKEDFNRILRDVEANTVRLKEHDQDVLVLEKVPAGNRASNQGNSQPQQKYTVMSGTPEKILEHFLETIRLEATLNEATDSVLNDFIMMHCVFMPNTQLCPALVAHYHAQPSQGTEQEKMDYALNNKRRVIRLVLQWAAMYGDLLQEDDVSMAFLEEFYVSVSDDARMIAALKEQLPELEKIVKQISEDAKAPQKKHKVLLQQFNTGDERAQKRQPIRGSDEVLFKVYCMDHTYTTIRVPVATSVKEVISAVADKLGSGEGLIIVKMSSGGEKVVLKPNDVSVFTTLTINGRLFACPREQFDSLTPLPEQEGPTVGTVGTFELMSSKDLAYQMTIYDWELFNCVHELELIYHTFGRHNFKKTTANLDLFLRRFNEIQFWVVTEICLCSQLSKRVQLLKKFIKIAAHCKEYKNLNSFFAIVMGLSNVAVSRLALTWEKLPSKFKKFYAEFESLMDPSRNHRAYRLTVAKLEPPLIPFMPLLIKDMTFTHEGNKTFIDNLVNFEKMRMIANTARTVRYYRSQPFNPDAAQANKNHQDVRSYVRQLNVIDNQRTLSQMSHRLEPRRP

Target | log2 fold change
RAB11FIP1 (UniProt Q6WKZ4) | inactive: -0.094
RAB5IF isoform 5 (UniProt Q9BUV8) | inactive: -0.018
RAC3 (UniProt P60763) | inactive: 0.11
RBM17 (UniProt Q96I25) | inactive: -0.039
RANBP6 (UniProt O60518) | inactive: 0.225
RAB33B (UniProt Q9H082) | inactive: 0.057
RAP1GDS1 isoform 5 (UniProt P52306) | inactive: -0.077
RBIS (UniProt Q8N0T1) | inactive: -0.002
RBM26 isoform 2 (UniProt Q5T8P6) | inactive: -0.193
RB1CC1 (UniProt Q8TDY2) | inactive: -0.108
RARS2 (UniProt Q5T160) | inactive: -0.101
RAD51 (UniProt Q06609) | inactive: 0.004
RAVER1 (UniProt E9PAU2) | inactive: -0.376
RALA (UniProt P11233) | inactive: 0.05
RABGAP1L isoform 5 (UniProt Q5R372) | inactive: 0.017
RAB9A (UniProt P51151) | inactive: 0.02
RBBP7 (UniProt Q16576) | inactive: 0.037
RAC1 (UniProt P63000) | inactive: -0.041
R3HDM4 (UniProt Q96D70) | inactive: -0.007

Compound: CN1CCc2c(c3ccccc3n2Cc2ccc(C(=O)NO)cc2)C1 [Tubastatin A]
Assay: as above
Summary of the method: as §1

Target | log2 fold change
RBM22 (UniProt Q9NW64) | inactive: -0.065
RBM12 (UniProt Q9NTZ6) | inactive: 0.074
RBM27 (UniProt Q9P2N5) | inactive: 0.013
RAF1 isoform 2 (UniProt P04049) | inactive: -0.036
RAD50, A0A494C0Y7 | inactive: -0.079
RAD51D (UniProt O75771) | inactive: -0.023
RABGAP1L isoform 3 (UniProt Q5R372) | inactive: -0.059
RAB40C (UniProt Q96S21) | inactive: 0.12
RABGGTA (UniProt Q92696) | inactive: -0.044
RARS (UniProt P54136) | inactive: 0.008
RANBP2 (UniProt P49792) | inactive: -0.016
RAPGEF4 (UniProt Q8WZA2) | inactive: 0.333
RAD50 isoform 2 (UniProt Q92878) | inactive: -0.025
RAB11FIP1 (UniProt Q6WKZ4) | inactive: 0.005
RAB5IF isoform 5 (UniProt Q9BUV8) | inactive: -0.139
RAC3 (UniProt P60763) | inactive: -0.081

Target | log2 fold change
RBM17 (UniProt Q96I25) | inactive: 0.065
RAB33B (UniProt Q9H082) | inactive: 0.013
RAP1GDS1 isoform 5 (UniProt P52306) | inactive: -0.01
RBIS (UniProt Q8N0T1) | inactive: 0.037
RBM26 isoform 2 (UniProt Q5T8P6) | inactive: 0.094
RB1CC1 (UniProt Q8TDY2) | inactive: 0.117
RARS2 (UniProt Q5T160) | inactive: -0.056
RAD51 (UniProt Q06609) | inactive: 0.099
RBM14 (UniProt Q96PK6) | inactive: 0.128
RAVER1 (UniProt E9PAU2) | inactive: 0.413
RALA (UniProt P11233) | inactive: -0.008
RABGAP1L isoform 5 (UniProt Q5R372) | inactive: -0.056
RAB9A (UniProt P51151) | inactive: -0.018
RAC1 (UniProt P63000) | inactive: 0.057
R3HDM4 (UniProt Q96D70) | inactive: 0.281

From the supplement of paper PMC10849652
